# PubChem BioAssay AID1259299, Sanger Institute, 2017
# Test: 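Kinases and colorectal mutated genes needed by colorectal cancer cells, with or without drugs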 (primary screen)
# Cells: human CAR1 colorectal cancer cells
# Reagent: siRNA pool against human genes
# Conditions: anchor drug BYL719 1 µM, cetuximab 5 µg/ml or trametinib 10 nM, or DMSO vehicle alone; exposure length not given
# Measured: 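Cell viability as fraction of non-targeting siRNA wells, mean of replicates, with robust z-score and a synergy score for each of three drugs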
# Direction: viability robust z-score, knock-down alone and viability, knock-down alone (DMSO): higher = more viable cells; synergy score with BYL719 and synergy score with cetuximab and synergy score with trametinib: higher = stronger synergy with drug (synthetic lethal)
# Rule for the call: 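Essential when viability robust z-score with knock-down alone (DMSO) is below -3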
# Meaning of the calls: active = essential (knock-down alone); inactive = no change
# This is an unselected part of 794 reagents. Over the whole deposit, 9 (1.1%) got an active call. 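Calls rest on knock-down alone; synergy scores play no part in calls, and no gene passed the synergy cut.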 Entries without a mark were called inactive. No viability above 1 is reported: the scale is capped. Not given: the amount of reagent, the time to read-out.
target gene,"viability robust z-score, knock-down alone","viability, knock-down alone (DMSO) (fraction of control)",synergy score with BYL719,synergy score with cetuximab,synergy score with trametinib
CKB (creatine kinase B),0.149,0.941,-0.197,-0.118,-0.131
PINK1 (PTEN induced kinase 1),0.158,0.942,0.0275,0.0114,0.0324
BTK (Bruton tyrosine kinase),0.789,1,-0.0117,-0.0245,-0.0234
PAK1 (p21 (RAC1) activated kinase 1),-2.03,0.74,-0.0774,-0.123,-0.0688
PGK1 (phosphoglycerate kinase 1),0.73,0.995,-0.139,-0.0781,0.071
CDK20 (cyclin dependent kinase 20),-0.365,0.893,-0.129,-0.0857,-0.0858
KDR (kinase insert domain receptor),-1.56,0.783,-0.21,-0.187,-0.0514
EEF2K (eukaryotic elongation factor 2 kinase),-2.16,0.728,-0.16,-0.152,-0.152
RPS6KB1 (ribosomal protein S6 kinase B1),0.789,1,-0.194,0.0305,-0.16
PTK2 (protein tyrosine kinase 2),0.643,0.987,0.0675,-0.00822,-0.0159
AXIN2 (axin 2),0.296,0.954,-0.0235,-0.0236,-0.0347
SIK3 (SIK family kinase 3),0.789,1,-0.163,-0.073,-0.221
SRPK1 (SRSF protein kinase 1),-1.34,0.803,-0.189,-0.0931,-0.0623
RAD21 (RAD21 cohesin complex component),0.789,1,-0.104,-0.0256,0.0705
STK32B (serine/threonine kinase 32B),0.789,1,-0.0579,-0.0434,-0.146
TYRO3 (TYRO3 protein tyrosine kinase),-1.1,0.826,-0.196,-0.202,-0.0543
CDK16 (cyclin dependent kinase 16),-1.15,0.821,-0.17,-0.0249,-0.108
PMVK (phosphomevalonate kinase),-0.835,0.85,-0.173,-0.062,-0.0124
TRIO (trio Rho guanine nucleotide exchange factor),-1.23,0.813,-0.151,-0.103,-0.0835
SCYL3 (SCY1 like pseudokinase 3),0.298,0.955,-0.0333,0.0122,0.00434
SMC1A (structural maintenance of chromosomes 1A),0.667,0.989,0.0748,0.078,0.0029
MAPK8 (mitogen-activated protein kinase 8),0.347,0.959,-0.223,-0.0701,-0.0984
HSPB8 (heat shock protein family B (small) member 8),-0.641,0.868,-0.0829,0.0116,0.0581
ZAP70 (zeta chain of T cell receptor associated protein kinase 70),-0.406,0.89,-0.0787,-0.0325,0.0554
CSK (C-terminal Src kinase),0.478,0.971,-0.0118,0.011,-0.0457
TBK1 (TANK binding kinase 1),-1.49,0.79,-0.173,-0.24,-0.0183

Ordered by “synergy score with BYL719” (low to high): some entries from above
target gene,"viability robust z-score, knock-down alone","viability, knock-down alone (DMSO) (fraction of control)",synergy score with BYL719,synergy score with cetuximab,synergy score with trametinib
KDR (kinase insert domain receptor),-1.56,0.783,-0.21,-0.187,-0.0514
RPS6KB1 (ribosomal protein S6 kinase B1),0.789,1,-0.194,0.0305,-0.16
EEF2K (eukaryotic elongation factor 2 kinase),-2.16,0.728,-0.16,-0.152,-0.152
PGK1 (phosphoglycerate kinase 1),0.73,0.995,-0.139,-0.0781,0.071
CDK20 (cyclin dependent kinase 20),-0.365,0.893,-0.129,-0.0857,-0.0858
AXIN2 (axin 2),0.296,0.954,-0.0235,-0.0236,-0.0347
PTK2 (protein tyrosine kinase 2),0.643,0.987,0.0675,-0.00822,-0.0159

Next results follow.
target gene,"viability robust z-score, knock-down alone","viability, knock-down alone (DMSO) (fraction of control)",synergy score with BYL719,synergy score with cetuximab,synergy score with trametinib
GAK (cyclin G associated kinase),0.789,1,-0.0899,-0.04,-0.044
PRKX (protein kinase cAMP-dependent X-linked catalytic subunit),0.789,1,-0.182,-0.073,-0.203
CDK11A (cyclin dependent kinase 11A),0.789,1,-0.206,-0.073,-0.0372
SBK1 (SH3 domain binding kinase 1),0.789,1,-0.148,-0.0704,0.0527
PRKCA (protein kinase C alpha),-1.68,0.772,-0.164,-0.135,-0.121
EXOSC10 (exosome component 10),-1.08,0.827,-0.185,-0.121,-0.119
DGKQ (diacylglycerol kinase theta),0.789,1,-0.128,-0.0598,-0.0564
PIK3CA,0.789,1,-0.159,-0.0317,-0.059
EFNA4 (ephrin A4),0.789,1,-0.149,-0.0481,0.0359
"FGR (FGR proto-oncogene, Src family tyrosine kinase)",0.0335,0.93,0.00987,0.00563,0.0788
DBF4 (DBF4-CDC7 kinase regulatory subunit),0.789,1,-0.0885,-0.073,-0.153
PEAK1 (pseudopodium enriched atypical kinase 1),-1.22,0.814,-0.0776,-0.0564,-0.109
AMER1 (APC membrane recruitment protein 1),0.789,1,-0.101,-0.073,-0.0232
PRKCE (protein kinase C epsilon),-0.467,0.884,-0.0688,0.0292,-0.00504
UCKL1 (uridine-cytidine kinase 1 like 1),0.789,1,-0.099,-0.0616,-0.0791
PKIB (cAMP-dependent protein kinase inhibitor beta),0.789,1,-0.0659,0.0428,0.077
PLK1 (polo like kinase 1),-2.97,0.653,0.0485,0.0884,-0.114
CEP290 (centrosomal protein 290),0.789,1,-0.206,-0.073,-0.0417
NRBP2 (nuclear receptor binding protein 2),-0.692,0.863,-0.0588,0.0328,-0.0997
CSNK2B (casein kinase 2 beta),-1.84,0.757,-0.134,-0.0223,0.011
BUB1 (BUB1 mitotic checkpoint serine/threonine kinase),0.789,1,-0.0847,0.0423,-0.0717
MAP3K9 (mitogen-activated protein kinase kinase kinase 9),-0.0329,0.924,0.0719,0.0145,-0.259
CAMKK1 (calcium/calmodulin dependent protein kinase kinase 1),0.789,1,-0.163,-0.066,-0.0955
CASP8 (caspase 8),0.789,1,-0.202,-0.073,-0.201
